PubChem BioAssay AID1224828 – NIAID | 2016
In all, the deposit lists about 17,000 reagents; this is a part drawn at random. 762 of them (4.5%) count as active. 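Active calls include both raised and lowered p65 entry, mostly lowered; wells with fewer than 50 cells lack a z-score.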 Raw values are not corrected between plates. Reagent sequences are not shown.

- Assay: 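Regulators linking TLR4 signalling to p65 nuclear translocation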 (primary screen)
- System: mouse RAW264.7 G9 macrophage reporter cells (GFP-p65, Tnf promoter-mCherry)
- Reagent: siRNA pool against mouse genes, 100 nM
- Duration: 2 days siRNA transfection, then 40 min LPS before fixation
- Challenge: LPS (Salmonella minnesota R595) at 10 ng/ml
- Detection: 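Imaged p65 nuclear translocation ratio, normalised to the plate median, converted to robust z-scores and averaged across two replicates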
- Reading the numbers: p65 translocation robust z-score: higher = more nuclear NF-kappaB p65 after LPS than the plate median; nuclear/cytoplasmic p65 ratio: higher = more nuclear NF-kappaB p65
- Call rule: 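Active if robust z is above 3.3 (negative regulators) or below -1.56, the Tlr4 control median (positive regulators); activity score 50 or more; control wells not called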
- Meaning of the calls: active = hit (p65 shift raised or lowered); inactive = no clear change

Capg (capping actin protein, gelsolin like) — p65 translocation robust z-score: -0.91; nuclear/cytoplasmic p65 ratio, rep 1: 1.43; nuclear/cytoplasmic p65 ratio, rep 2: 1.52; low cell count flag: enough cells to score; Outcome: inactive
1600014C10Rik (RIKEN cDNA 1600014C10 gene) — p65 translocation robust z-score: 0.46; nuclear/cytoplasmic p65 ratio, rep 1: 1.66; nuclear/cytoplasmic p65 ratio, rep 2: 1.46; low cell count flag: enough cells to score; Outcome: inactive
Hspb7 (heat shock protein family B (small) member 7) — p65 translocation robust z-score: -0.64; nuclear/cytoplasmic p65 ratio, rep 1: 1.32; nuclear/cytoplasmic p65 ratio, rep 2: 1.32; low cell count flag: enough cells to score; Outcome: inactive
Dnaaf6 (dynein axonemal assembly factor 6) — p65 translocation robust z-score: -0.48; nuclear/cytoplasmic p65 ratio, rep 1: 1.43; nuclear/cytoplasmic p65 ratio, rep 2: 1.28; low cell count flag: enough cells to score; Outcome: inactive
Chst14 (carbohydrate sulfotransferase 14) — p65 translocation robust z-score: -2.13; nuclear/cytoplasmic p65 ratio, rep 1: 1.21; nuclear/cytoplasmic p65 ratio, rep 2: 1.29; low cell count flag: enough cells to score; Outcome: active
Lrit1 — p65 translocation robust z-score: -0.36; nuclear/cytoplasmic p65 ratio, rep 1: 1.67; nuclear/cytoplasmic p65 ratio, rep 2: 1.48; low cell count flag: enough cells to score; Outcome: inactive
Or5g25 (olfactory receptor family 5 subfamily G member 25) — p65 translocation robust z-score: -0.5; nuclear/cytoplasmic p65 ratio, rep 1: 1.6; nuclear/cytoplasmic p65 ratio, rep 2: 1.49; low cell count flag: enough cells to score; Outcome: inactive
Zic1 (zinc finger protein of the cerebellum 1) — p65 translocation robust z-score: 0.51; nuclear/cytoplasmic p65 ratio, rep 1: 1.67; nuclear/cytoplasmic p65 ratio, rep 2: 1.6; low cell count flag: enough cells to score; Outcome: inactive
Slc44a1 — nuclear/cytoplasmic p65 ratio, rep 1: 1.4; nuclear/cytoplasmic p65 ratio, rep 2: 1.51; low cell count flag: fewer than 50 cells per well; well left out of scoring; Outcome: inactive
Or8k38 (olfactory receptor family 8 subfamily K member 38) — p65 translocation robust z-score: 0.08; nuclear/cytoplasmic p65 ratio, rep 1: 1.71; nuclear/cytoplasmic p65 ratio, rep 2: 1.55; low cell count flag: enough cells to score; Outcome: inactive
Mageb18 (MAGE family member B18) — p65 translocation robust z-score: 1.13; nuclear/cytoplasmic p65 ratio, rep 1: 1.63; nuclear/cytoplasmic p65 ratio, rep 2: 2.17; low cell count flag: enough cells to score; Outcome: inactive
Usp7 (ubiquitin specific peptidase 7) — p65 translocation robust z-score: 0.12; nuclear/cytoplasmic p65 ratio, rep 1: 1.59; nuclear/cytoplasmic p65 ratio, rep 2: 1.47; low cell count flag: enough cells to score; Outcome: inactive
Zfp592 (zinc finger protein 592) — p65 translocation robust z-score: -1.1; nuclear/cytoplasmic p65 ratio, rep 1: 1.22; nuclear/cytoplasmic p65 ratio, rep 2: 1.16; low cell count flag: enough cells to score; Outcome: inactive
Arhgap9 (Rho GTPase activating protein 9) — p65 translocation robust z-score: 0.16; nuclear/cytoplasmic p65 ratio, rep 1: 1.68; nuclear/cytoplasmic p65 ratio, rep 2: 1.48; low cell count flag: enough cells to score; Outcome: inactive
Aco2 (aconitase 2, mitochondrial) — p65 translocation robust z-score: -0.36; nuclear/cytoplasmic p65 ratio, rep 1: 1.61; nuclear/cytoplasmic p65 ratio, rep 2: 1.57; low cell count flag: enough cells to score; Outcome: inactive
Ldlrad3 (low density lipoprotein receptor class A domain containing 3) — p65 translocation robust z-score: 1.74; nuclear/cytoplasmic p65 ratio, rep 1: 1.84; nuclear/cytoplasmic p65 ratio, rep 2: 1.42; low cell count flag: enough cells to score; Outcome: inactive
Cep131 (centrosomal protein 131) — p65 translocation robust z-score: -0.23; nuclear/cytoplasmic p65 ratio, rep 1: 1.57; nuclear/cytoplasmic p65 ratio, rep 2: 1.48; low cell count flag: enough cells to score; Outcome: inactive
Hnrnph2 (heterogeneous nuclear ribonucleoprotein H2) — p65 translocation robust z-score: -0.37; nuclear/cytoplasmic p65 ratio, rep 1: 1.66; nuclear/cytoplasmic p65 ratio, rep 2: 1.42; low cell count flag: enough cells to score; Outcome: inactive
Zrsr2 — p65 translocation robust z-score: -2.18; nuclear/cytoplasmic p65 ratio, rep 1: 1.05; nuclear/cytoplasmic p65 ratio, rep 2: 1.03; low cell count flag: enough cells to score; Outcome: active
Tshr (thyroid stimulating hormone receptor) — p65 translocation robust z-score: -0.57; nuclear/cytoplasmic p65 ratio, rep 1: 1.39; nuclear/cytoplasmic p65 ratio, rep 2: 1.55; low cell count flag: enough cells to score; Outcome: inactive
Mterf2 (mitochondrial transcription termination factor 2) — p65 translocation robust z-score: -0.84; nuclear/cytoplasmic p65 ratio, rep 1: 1.47; nuclear/cytoplasmic p65 ratio, rep 2: 1.51; low cell count flag: enough cells to score; Outcome: inactive

Part of the list above, limited to “low cell count flag”:
Zic1 (zinc finger protein of the cerebellum 1): enough cells to score
Slc44a1: fewer than 50 cells per well; well left out of scoring
